Numbering of substitutions follows the chain as printed. These are yes or no findings as the source states them, for the method shown. Some entries that bind do so weakly or less than the wild type.
T1: human Sema3A (human) (UniProt Q14563)
T1 sequence (looked up): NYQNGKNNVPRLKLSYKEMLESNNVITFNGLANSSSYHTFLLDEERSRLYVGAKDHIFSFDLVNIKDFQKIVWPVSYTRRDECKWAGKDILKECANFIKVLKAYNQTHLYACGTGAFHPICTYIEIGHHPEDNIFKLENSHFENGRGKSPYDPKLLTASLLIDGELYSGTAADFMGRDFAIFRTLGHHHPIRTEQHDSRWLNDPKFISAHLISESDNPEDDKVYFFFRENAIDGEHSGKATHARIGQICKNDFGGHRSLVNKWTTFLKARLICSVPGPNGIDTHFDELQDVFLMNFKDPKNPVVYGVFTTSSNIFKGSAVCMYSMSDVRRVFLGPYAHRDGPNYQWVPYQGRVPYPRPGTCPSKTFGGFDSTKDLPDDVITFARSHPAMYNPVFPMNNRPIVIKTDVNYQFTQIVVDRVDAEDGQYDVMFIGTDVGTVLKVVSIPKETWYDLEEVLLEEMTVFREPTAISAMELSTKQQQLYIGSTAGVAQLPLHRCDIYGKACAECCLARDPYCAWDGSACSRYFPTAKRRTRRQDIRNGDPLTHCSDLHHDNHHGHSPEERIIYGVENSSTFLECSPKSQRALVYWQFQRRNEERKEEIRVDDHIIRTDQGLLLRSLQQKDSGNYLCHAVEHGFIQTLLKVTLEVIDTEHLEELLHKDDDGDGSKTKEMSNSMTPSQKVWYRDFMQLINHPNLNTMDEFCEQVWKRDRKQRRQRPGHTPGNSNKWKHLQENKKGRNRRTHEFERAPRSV

T2: mouse Sema3A (mouse) (UniProt O08665)
T2 sequence (looked up): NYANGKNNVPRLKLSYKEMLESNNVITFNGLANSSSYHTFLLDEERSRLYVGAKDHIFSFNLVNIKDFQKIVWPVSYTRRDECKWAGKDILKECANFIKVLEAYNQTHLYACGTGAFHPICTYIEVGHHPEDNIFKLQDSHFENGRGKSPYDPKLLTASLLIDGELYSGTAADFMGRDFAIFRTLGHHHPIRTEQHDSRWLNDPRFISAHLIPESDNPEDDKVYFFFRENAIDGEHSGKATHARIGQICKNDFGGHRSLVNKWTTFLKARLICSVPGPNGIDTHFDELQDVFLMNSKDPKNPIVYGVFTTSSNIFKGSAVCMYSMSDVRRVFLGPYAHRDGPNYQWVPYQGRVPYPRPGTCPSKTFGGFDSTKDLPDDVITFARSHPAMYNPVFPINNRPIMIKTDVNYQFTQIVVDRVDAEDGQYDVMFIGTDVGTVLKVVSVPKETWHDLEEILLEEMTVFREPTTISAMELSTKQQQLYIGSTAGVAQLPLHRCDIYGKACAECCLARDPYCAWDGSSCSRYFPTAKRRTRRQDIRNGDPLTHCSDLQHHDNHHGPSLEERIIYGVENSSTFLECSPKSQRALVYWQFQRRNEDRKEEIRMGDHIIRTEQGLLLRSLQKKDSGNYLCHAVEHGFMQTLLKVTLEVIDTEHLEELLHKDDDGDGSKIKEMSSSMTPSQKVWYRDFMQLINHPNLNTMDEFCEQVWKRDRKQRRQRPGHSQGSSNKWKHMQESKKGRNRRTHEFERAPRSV

B1: F11 anti-Sema3A IgG (antibody, V domains shown)
VH: EVQLLESGGGLVQTGGSLRLSCAASGFTFSDYAMSWVRQAPGKGLEWVSWIYYDSGSKYYADSVKGRFTISRDNSKNTLYLQMNSLRAEDTAVYYCAKLNGDFDYWGQGTLVTVSS
VL: QSVLTQPPSASGTPGQRVTISCSGSSSNIGNNDVSWYQQLPGTAPKLLIYADSHRPSGVPDRFSGSKSGTSASLAISGLRSEDEADYYCGAWDSSLSGYVFGGGTKLTVL
B2: A08 anti-Sema3A IgG (antibody, V domains shown)
VH: B1 VH with T14P, W50G, S55D, G56S, K58Q, L99N, N100L, D102R
VL: B1 VL with S23T, N31S, D33A, S35T, A51D, S53N, S94D, G98A
B3: C10 anti-Sema3A IgG (antibody, V domains shown)
VH: B1 VH with T14P, W50G, S55D, G56S, K58Q, K65E, K98R, L99Y, N100L, D102L
VL: B1 VL with D33S, S35N, A51S, H54Q, A91S, S94Y, G98A

target: T1, human Sema3A (human); assay: SPR, Biacore

Row | Binder | binding
1 | B1 | binds
2 | B2 | binds
3 | B3 | binds

target: T2, mouse Sema3A (mouse); assay: SPR, Biacore

Row | Binder | binding
4 | B1 | binds
5 | B2 | binds
6 | B3 | binds

target: T1, human Sema3A (human); assay: ELISA, IgG at 500 nM and 50 nM, BSA as negative control

Row | Binder | binding
7 | B1 | binds
8 | B2 | binds
9 | B3 | binds

target: T2, mouse Sema3A (mouse); assay: as above

Row | Binder | binding
10 | B1 | binds
11 | B2 | binds
12 | B3 | binds
